Reference: publication PMC3747076
Results are given in words; binding and its absence hold for the method and conditions named. Binding seen in cells or lysates may run through a third protein. Some results given as binding are weak or reduced against the parent protein; the word gives no strength. Where a sequence is shown, tags or fusion partners need not be part of it.

Sequences of proteins named here, by UniProt entry; tags and fusion partners are left off.
UniProt Q07955: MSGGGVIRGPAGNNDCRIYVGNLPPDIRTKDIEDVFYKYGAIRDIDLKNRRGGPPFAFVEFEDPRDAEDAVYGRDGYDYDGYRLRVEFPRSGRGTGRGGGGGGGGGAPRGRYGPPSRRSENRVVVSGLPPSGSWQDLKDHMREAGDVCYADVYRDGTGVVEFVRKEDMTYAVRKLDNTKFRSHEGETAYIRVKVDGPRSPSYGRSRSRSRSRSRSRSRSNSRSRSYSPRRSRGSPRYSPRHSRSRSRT
UniProt Q13242: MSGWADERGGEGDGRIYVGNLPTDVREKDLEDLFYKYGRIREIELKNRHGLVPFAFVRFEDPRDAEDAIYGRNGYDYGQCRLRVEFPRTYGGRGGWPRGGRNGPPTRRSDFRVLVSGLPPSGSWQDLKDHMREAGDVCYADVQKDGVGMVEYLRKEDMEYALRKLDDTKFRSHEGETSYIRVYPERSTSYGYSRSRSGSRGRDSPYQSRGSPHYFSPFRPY

Target: T1, FLAG-tagged Transformer-2β (Tra2β) (human) (UniProt P62995)
T1 sequence: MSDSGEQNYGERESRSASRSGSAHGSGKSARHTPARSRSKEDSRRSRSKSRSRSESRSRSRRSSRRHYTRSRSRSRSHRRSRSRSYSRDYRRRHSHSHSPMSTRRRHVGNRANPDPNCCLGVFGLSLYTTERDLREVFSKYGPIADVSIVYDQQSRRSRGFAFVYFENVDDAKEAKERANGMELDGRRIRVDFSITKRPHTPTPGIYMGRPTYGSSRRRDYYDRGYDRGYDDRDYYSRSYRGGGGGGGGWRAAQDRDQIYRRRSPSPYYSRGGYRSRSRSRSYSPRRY
Assay: co-IP; anti-FLAG antibody-agarose precipitates of RIPA lysates (with protease, phosphatase and ribonuclease inhibitors) of SH-SY5Y cells expressing FLAG-Tra2β, overnight at 4°C; immunoblot with antibodies specific to ASF/SF2 and SRp30c

Row | binding | Substance
1 | binds | ASF/SF2 (from UniProt Q07955 1-248)
2 | binds | SRp30c (from UniProt Q13242 1-221)
